Reference: patent publication US5616684A (priority 1991, dated 1997)

Test: general procedure: solution-phase peptide synthesis; DCC/HONB (ONB active esters)
Details: coupling step

With “PEPTIDE1{[dD].[1Nal].D.[dL].L.[dW]}$PEPTIDE1,PEPTIDE1,6:R2-1:R1$$$V2.0” the step yield was 79 0%.
For “PEPTIDE1{[dD].[dP].D.[dL].L.[dW]}$PEPTIDE1,PEPTIDE1,6:R2-1:R1$$$V2.0”, the step yield was 84 3%.
For “PEPTIDE1{[dD].[Hyp].D.[dL].L.[dW]}$PEPTIDE1,PEPTIDE1,6:R2-1:R1$$$V2.0”, the step yield was 96 4%.
With “PEPTIDE1{[dD].D.W.[dL].L.[dW]}$PEPTIDE1,PEPTIDE1,6:R2-1:R1$$$V2.0” the step yield was 90 0%.
In the case of “PEPTIDE1{[dD].W.D.[dV].L.[dW]}$PEPTIDE1,PEPTIDE1,6:R2-1:R1$$$V2.0”, the step yield is reported as 93 2%.
With “PEPTIDE1{[dD].W.E.[dL].L.[dW]}$PEPTIDE1,PEPTIDE1,6:R2-1:R1$$$V2.0” the step yield was 98 2%.

Compared with “Boc-Asn(CH2 Ph)-Asp(OBzl)-D-Leu-Leu-OPac”, “Boc-Leu-D-Trp-D-Asp(OBzl)-Asn(CH2 CH2 -Ind)-Asp(OBzl)-OPac” is higher in step yield: 86.7% for the first, 91.4% for the second.

Compared with “Boc-Orn(COCH2 CH2 Ph)-Asp(OBzl)-D-Leu-Leu-D-Trp-D-Asp(OBzl)-OPac”, “PEPTIDE1{[dD].W.D.[D-gMeLeu].L.[dW]}$PEPTIDE1,PEPTIDE1,1:R1-6:R2$$$V2.0” is lower in step yield: 91.0% for the first, 49.1% for the second.

First: Boc-Asn(CH2 CH2 Ph)-Asp(OBzl)-D-Leu-Leu-OPac
Second: Boc-D-Trp-D-Asp(OBzl)-Asn(NHCH2 CH2 Ind)-Asp(OBzl)-D-Thg(2)-Leu-OPac
The step yield of the first is higher: 88.7% for the first, 68.0% for the second.

Going from “PEPTIDE1{[dD].[Asp(R4)].D.[dL].L.[dW]}$PEPTIDE1,PEPTIDE1,1:R1-6:R2$$$V2.0” to “Boc-Orn(COCH2 -Ind)-Asp(OBzl)-D-Leu-Leu-D-Trp-D-Asp(OBzl)-OPac”, the step yield rises from 75.4% to 87.4%.

Compared with “PEPTIDE1{[dD].[Orn(COCH2-Ind)].D.[dL].L.[dW]}$PEPTIDE1,PEPTIDE1,1:R1-6:R2$$$V2.0”, “PEPTIDE1{[dD].H.D.[dL].L.[dW]}$PEPTIDE1,PEPTIDE1,6:R2-1:R1$$$V2.0” is higher in step yield: 86.7% for the first, 93.1% for the second.

Going from “Cyclo[--D--Cta--Gln(CH2 CH2 Ph)--Asp--D--Thg(3)--Leu--D--Trp--]” to “Boc-Asn(NHCH2 CH2 Ind)-AsP(OBzl)-D-Thg(2)-Leu-OPac”, the step yield rises from 84.3% to 96.7%.

Compared with “PEPTIDE1{[dD].[Asp(R3)].D.[dL].L.[dW]}$PEPTIDE1,PEPTIDE1,1:R1-6:R2$$$V2.0”, “Boc-D-Trp-D-Asp(OBzl)-Asn(CH2 CH2 Ph)-Asp(OBzl)-D-Leu-Leu-OPac” is higher in step yield: 87.6% for the first, 90.5% for the second.

Compared with “PEPTIDE1{[dD].[Gln(CH2Ph)].D.[dL].L.[dW]}$PEPTIDE1,PEPTIDE1,1:R1-6:R2$$$V2.0”, “Cyclo[--D--Asp--Gln(CH2 Ph)--Asp--D--Thg(3)--Leu--D--Trp(For)--]” is higher in step yield: 87.0% for the first, 89.5% for the second.

Going from “PEPTIDE1{[dD].W.D.[Achx].L.[dW]}$PEPTIDE1,PEPTIDE1,1:R1-6:R2$$$V2.0” to “PEPTIDE1{[dD].[Asp(R2)].D.[dL].L.[dW]}$PEPTIDE1,PEPTIDE1,1:R1-6:R2$$$V2.0”, the step yield falls from 94.2% to 92.4%.

Going from “Boc-Orn(COCH2 Ph)-Asp(OBzl)-D-Leu-Leu-D-Trp-D-Asp(OBzl)-OPac” to “Cyclo[--D--Cta--Gln(CH2 CH2 --Ind)--Asp--D--Thg(2)--Leu--D--Trp--]”, the step yield rises from 78.4% to 91.4%.

Going from “PEPTIDE1{[dD].[Trp(For)].D.[dL].L.[dW]}$PEPTIDE1,PEPTIDE1,1:R1-6:R2$$$V2.0” to “Boc-D-Trp-D-Asp(OBzl)-Asn(CH2 Ph)-Asp(OBzl)-D-Leu-Leu-OPac”, the step yield falls from 88.0% to 81.6%.

First: PEPTIDE1{[dD].W.D.[dL].L.[D-Trp(For)]}$PEPTIDE1,PEPTIDE1,1:R1-6:R2$$$V2.0
Second: PEPTIDE1{[dD].[dA].D.[dL].L.[dW]}$PEPTIDE1,PEPTIDE1,1:R1-6:R2$$$V2.0
The step yield of the first is lower: 91.1% for the first, 91.8% for the second.

First: Boc-D-Trp-D-Asp(OBzl)-Asn(CH2 CH2 -Ind)-Asp(OBzl)-OPac
Second: Boc-D-Thg(2)-Leu-D-Trp-D-Asp(OBzl)-Asn(CH2 CH2 -Ind)-Asp(OBzl)-OPac
The step yield of the first is lower: 56.9% for the first, 98.7% for the second.

First: Boc-D-Asp(OBzl)-Asn(CH2 CH2 Ph)-Asp(OBzl)-D-Leu-Leu-OPac
Second: Boc-[dW][dD](OBn)WD(OBn)-OPac
The step yield of the first is higher: 93.5% for the first, 80.3% for the second.

First: Cyclo[--D--Asp--Gln(CH2 Ph)--Asp--D--Thg(2)--Leu--D--Trp(For)--]
Second: PEPTIDE1{[dD].[Orn(COCH2CH2Ph)].D.[dL].L.[dW]}$PEPTIDE1,PEPTIDE1,1:R1-6:R2$$$V2.0
The step yield of the first is lower: 85.4% for the first, 90.7% for the second.

First: Cyclo[--D--Asp--Gln(CH2 Ph)--Asp--D--Thg(3)--Leu--D--Trp(Me)--]
Second: PEPTIDE1{[dD].D.D.[dL].L.[dW]}$PEPTIDE1,PEPTIDE1,6:R2-1:R1$$$V2.0
The step yield of the first is lower: 78.1% for the first, 83.8% for the second.

Going from “Boc-D-Asp(OBzl)-Asn(NHCH2 CH2 Ind)-Asp(OBzl)-D-Thg(2)-Leu-OPac” to “PEPTIDE1{[dD].[Gln(CH2CH2Ph)].D.[dL].L.[dW]}$PEPTIDE1,PEPTIDE1,1:R1-6:R2$$$V2.0”, the step yield falls from 85.9% to 77.0%.

Compared with “Cyclo[--D--Cta--Gln(CH2 CH2 Ph)--Asp--D--Thg(2)--Leu--D--Trp--]”, “PEPTIDE1{[dD].W.D.[dTle].L.[dW]}$PEPTIDE1,PEPTIDE1,6:R2-1:R1$$$V2.0” is lower in step yield: 92.0% for the first, 87.3% for the second.

Same assay, conditions: cyclisation step

First: PEPTIDE1{[dD].[Asp(R6)].D.[dL].L.[dW]}$PEPTIDE1,PEPTIDE1,1:R1-6:R2$$$V2.0
Second: cyclo([dD]A[dD][dL]L[dW])
The cyclisation yield of the first is higher: 20.6% for the first, 15.3% for the second.

Going from “PEPTIDE1{[dD].W.D.[D-gMeLeu].L.[dW]}$PEPTIDE1,PEPTIDE1,1:R1-6:R2$$$V2.0” to “PEPTIDE1{[dD].W.D.[dL].L.[dTrp(Me)]}$PEPTIDE1,PEPTIDE1,6:R2-1:R1$$$V2.0”, the cyclisation yield falls from 51.5% to 47.4%.

First: PEPTIDE1{[dD].[Orn(COCH2-Ind)].D.[dL].L.[dW]}$PEPTIDE1,PEPTIDE1,1:R1-6:R2$$$V2.0
Second: PEPTIDE1{[dD].[Orn(COCH2Ph)].D.[dL].L.[dW]}$PEPTIDE1,PEPTIDE1,1:R1-6:R2$$$V2.0
The cyclisation yield of the first is higher: 12.5% for the first, 2.9% for the second.

Compared with “cyclo[-D-Asp-Asn(CH2 CH2 Ph)-Asp-D-Leu-Leu-D-Trp-]”, cyclo([dD]AD[dL]L[dW]) is lower in cyclisation yield: 24.1% for the first, 18.2% for the second.

Going from “Cyclo[--D--Asp--Asn(CH2 CH2 --Ind)--Asp--D--Val--Leu--D--Trp--]” to “PEPTIDE1{[dD].W.D.[D-Thg(2)].L.[dW]}$PEPTIDE1,PEPTIDE1,1:R1-6:R2$$$V2.0”, the cyclisation yield falls from 82.6% to 4.6%.

Going from “Cyclo[--D--Cta--Trp--Asp--D--Leu--Leu--D--Trp--]” to “cyclo[-D-Asp(OBzl)-Asn(NHCH2 CH2 Ind)-Asp(OBzl)-D-Thg(2)-Leu-D-Trp-]”, the cyclisation yield rises from 23.8% to 90.4%.

Going from “PEPTIDE1{[dD].[Asn(CH2CH2-Ind)].D.[dL].L.[dW]}$PEPTIDE1,PEPTIDE1,1:R1-6:R2$$$V2.0” to “PEPTIDE1{[dD].A.[dE].[dL].L.[dW]}$PEPTIDE1,PEPTIDE1,1:R1-6:R2$$$V2.0”, the cyclisation yield falls from 19.4% to 10.8%.

Going from “PEPTIDE1{[dD].[Orn(COPh)].D.[dL].L.[dW]}$PEPTIDE1,PEPTIDE1,1:R1-6:R2$$$V2.0” to “cyclo[-D-Asp-Asn(CH2 CH2 -Ind)-Asp-DThg-(2)-Leu-D-Trp-]”, the cyclisation yield falls from 48.1% to 9.5%.

First: PEPTIDE1{[dD].[His(Bzl)].D.[dL].L.[dW]}$PEPTIDE1,PEPTIDE1,1:R1-6:R2$$$V2.0
Second: cyclo([dD]AE[dL]L[dW])
The cyclisation yield of the first is higher: 52.9% for the first, 24.1% for the second.

Compared with “PEPTIDE1{[dD].[Orn(COCH2CH2Ph)].D.[dL].L.[dW]}$PEPTIDE1,PEPTIDE1,1:R1-6:R2$$$V2.0”, “PEPTIDE1{[dD].[Arg(Tos)].D.[dL].L.[dW]}$PEPTIDE1,PEPTIDE1,1:R1-6:R2$$$V2.0” is lower in cyclisation yield: 40.9% for the first, 17.8% for the second.

“PEPTIDE1{[dD].W.D.[dTle].L.[dW]}$PEPTIDE1,PEPTIDE1,6:R2-1:R1$$$V2.0” gave a cyclisation yield of 42.8%.

Same assay, conditions: cyclisation step; run 1

For “PEPTIDE1{[dD].W.D.[Acbu].L.[dW]}$PEPTIDE1,PEPTIDE1,1:R1-6:R2$$$V2.0”, the cyclisation yield was 19.2%.

Same assay, conditions: cyclisation step; run 2

With “PEPTIDE1{[dD].W.D.[Acbu].L.[dW]}$PEPTIDE1,PEPTIDE1,1:R1-6:R2$$$V2.0” the cyclisation yield was 10.4%.

Same assay, conditions: late stage modification step

Compared with “PEPTIDE1{[dD].[Gln(CH2CH2-Ind)].D.[dL].L.[dW]}$PEPTIDE1,PEPTIDE1,1:R1-6:R2$$$V2.0”, “Boc-Orn(COCH2 CH2 Ph)-Asp(OBzl)-D-Leu-Leu-D-Trp-D-Asp(OBzl)-OH” is higher in step yield: 81.0% for the first, 98.3% for the second.

Compared with “PEPTIDE1{[dD].[Asp(R5)].D.[dL].L.[dW]}$PEPTIDE1,PEPTIDE1,1:R1-6:R2$$$V2.0”, “PEPTIDE1{[dD].[Hyp].D.[dL].L.[dW]}$PEPTIDE1,PEPTIDE1,6:R2-1:R1$$$V2.0” is lower in step yield: 91.4% for the first, 85.7% for the second.

First: PEPTIDE1{[dD].W.D.[dPhg].L.[dW]}$PEPTIDE1,PEPTIDE1,6:R2-1:R1$$$V2.0
Second: Cyclo[--D--Asp--Gln(CH2 CH2 Ph)--Asp--D--Thg(2)--Leu--D--Trp--]
The step yield of the first is higher: 93.0% for the first, 92.5% for the second.

Compared with “Boc-Orn(COCH2 -Ind)-Asp(OBzl)-D-Leu-Leu-D-Trp-D-Asp(OBzl)-OH”, “Boc-D-Trp-D-Asp(OBzl)-Ala-D-Asp(BOzl)-D-Leu-Leu-OH” is lower in step yield: 97.6% for the first, 93.5% for the second.

First: Boc-D-Thg(2)-Leu-D-Trp-D-Asp(OBzl)-Asn(CH2 CH2 -Ind)-Asp(OBzl)-OH
Second: PEPTIDE1{[dD].[Hyp(Bzl)].D.[dL].L.[dW]}$PEPTIDE1,PEPTIDE1,1:R1-6:R2$$$V2.0
The step yield of the first is higher: 98.0% for the first, 82.6% for the second.

First: PEPTIDE1{[dD].[His(Bom)].D.[dL].L.[dW]}$PEPTIDE1,PEPTIDE1,1:R1-6:R2$$$V2.0
Second: Boc-D-Trp-D-Asp(OBzl)-Asn(NHCH2 CH2 Ind)-Asp(OBzl)-D-Thg(2)-Leu-OH
The step yield of the first is lower: 96.1% for the first, 98.0% for the second.

First: Boc-Orn(COCH2 Ph)-Asp(OBzl)-D-Leu-Leu-D-Trp-D-Asp(OBzl)-OH
Second: Boc-D-Trp-D-Asp(OBzl)-Asn(CH2 CH2 Ph)-Asp(OBzl)-D-Leu-Leu-OH
The step yield of the first is lower: 97.2% for the first, 97.3% for the second.

For “Boc-D-Trp-D-Asp(OBzl)-Asn(CH2 Ph)-Asp(OBzl)-D-Leu-Leu-OH”, the step yield was 96.1%.

Same assay, conditions: purification step

Going from “PEPTIDE1{[dD].[Hyp].D.[dL].L.[dW]}$PEPTIDE1,PEPTIDE1,6:R2-1:R1$$$V2.0” to “PEPTIDE1{[dD].[Hyp(Bzl)].D.[dL].L.[dW]}$PEPTIDE1,PEPTIDE1,1:R1-6:R2$$$V2.0”, the step yield rises from 78.8% to 79.0%.

Strings that start with PEPTIDE1 are HELM notation: dots part the residues, brackets hold end groups and non-standard residues. Non-standard residues stand in square brackets, D forms with d. *: point of attachment. OPac = O=C(CO*)c1ccccc1; Boc = CC(C)(C)OC(=O)*; OBn = c1ccc(CO*)cc1
